# Measured values taken from paper PMC3541234, “Functional Characterization of a Chimeric Soluble Fas Ligand Polymer with In Vivo Anti-Tumor Activity” (PLoS ONE, 2013).
# Results are given in words; binding and its absence hold for the method and conditions named. Some results given as binding are weak or reduced against the parent protein; the word gives no strength.
# B1: pFasL (polymeric soluble FasL; IgFasL chimera: Ig module of gp190 fused to the extracellular domain of hFasL) (ligand, UniProt P42702 246-328, looked up)
# chain: WIPDSQTKVFPQDKVILVGSDITFCCVSQEKVLSALIGHTNCPLIHLDGENVAIKIRNISVSASSGTNVVFTTEDNIFGTVIFQKELAELRESTSQMHTASSLEKQIGHPSPPPEKKELRKVAHLTGKSNSRSMPLEWEDTYGIVLLSGVKYKKGGLVINETGLYFVYSKVYFRGQSCNNLPLSHKVYMRNSKYPQDLVMMEGKMMSYCTTGQMWARSSYLGAVFNLTSADHLYVNVSELSLVNFEESQTFFGLYKL
# notes: Ig-like (Ig) module of the LIF receptor gp190, amino acids 246 to 328; extracellular domain of human FasL (hFasL), amino acids 108 to 281; source: COS cells, transiently transfected (pED4 vector), supernatant; for SPR in Opti-MEM, concentrated 100 times, dialysed against PBS; copies: 12
# B2: D2FasL (D2 module of gp190 fused to the extracellular domain of hFasL) (ligand, UniProt P42702 329-542, looked up)
# chain: AGYPPDTPQQLNCETHDLKEIICSWNPGRVTALVGPRATSYTLVESFSGKYVRLKRAEAPTNESYQLLFQMLPNQEIYNFTLNAHNPLGRSQSTILVNITEKVYPHTPTSFKVKDINSTAVKLSWHLPGNFAKINFLCEIEIKKSNSVQEQRNVTIKGVENSSYLVALDKLNPYTLYTFRIRCSTETFWKWSKWSNKKQHLTTEASPSKGPDTWQKELAELRESTSQMHTASSLEKQIGHPSPPPEKKELRKVAHLTGKSNSRSMPLEWEDTYGIVLLSGVKYKKGGLVINETGLYFVYSKVYFRGQSCNNLPLSHKVYMRNSKYPQDLVMMEGKMMSYCTTGQMWARSSYLGAVFNLTSADHLYVNVSELSLVNFEESQTFFGLYKL
# notes: extracellular domain of human FasL (hFasL), amino acids 108 to 281; source: COS cells, transiently transfected (pED4 vector), supernatant; for SPR in Opti-MEM, concentrated 100 times, dialysed against PBS
# B3: D1IgD2FasL (D1IgD2 modules of gp190 fused to the extracellular domain of hFasL) (ligand, UniProt P42702 49-542, looked up)
# chain: APHDLKCVTNNLQVWNCSWKAPSGTGRGTDYEVCIENRSRSCYQLEKTSIKIPALSHGDYEITINSLHDFGSSTSKFTLNEQNVSLIPDTPEILNLSADFSTSTLYLKWNDRGSVFPHRSNVIWEIKVLRKESMELVKLVTHNTTLNGKDTLHHWSWASDMPLECAIHFVEIRCYIDNLHFSGLEEWSDWSPVKNISWIPDSQTKVFPQDKVILVGSDITFCCVSQEKVLSALIGHTNCPLIHLDGENVAIKIRNISVSASSGTNVVFTTEDNIFGTVIFAGYPPDTPQQLNCETHDLKEIICSWNPGRVTALVGPRATSYTLVESFSGKYVRLKRAEAPTNESYQLLFQMLPNQEIYNFTLNAHNPLGRSQSTILVNITEKVYPHTPTSFKVKDINSTAVKLSWHLPGNFAKINFLCEIEIKKSNSVQEQRNVTIKGVENSSYLVALDKLNPYTLYTFRIRCSTETFWKWSKWSNKKQHLTTEASPSKGPDTWQKELAELRESTSQMHTASSLEKQIGHPSPPPEKKELRKVAHLTGKSNSRSMPLEWEDTYGIVLLSGVKYKKGGLVINETGLYFVYSKVYFRGQSCNNLPLSHKVYMRNSKYPQDLVMMEGKMMSYCTTGQMWARSSYLGAVFNLTSADHLYVNVSELSLVNFEESQTFFGLYKL
# notes: as for B2
# Key:
# Test in all cases: native gel or EMSA; BN-PAGE, 4-18% acrylamide gradient, non-reducing, 4 C overnight; COS supernatants; FasL detected with mAb G247; compared with SDS-PAGE under reducing conditions
# [1] = molecular target: pFasL (polymeric soluble FasL; IgFasL chimera: Ig module of gp190 fused to the extracellular domain of hFasL) (UniProt P42702)
# [2] = molecular target: D2FasL (D2 module of gp190 fused to the extracellular domain of hFasL) (UniProt P42702)
# [3] = molecular target: D1IgD2FasL (D1IgD2 modules of gp190 fused to the extracellular domain of hFasL) (UniProt P42702)
binder,measurement,setting,value
B1,binding,[1],binds
B2,binding,[2],binds
B3,binding,[3],binds
